PubChem BioAssay AID1224830 | NIAID – 2016
Assay: 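Host factors that control LPS-induced TNF expression in human macrophages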 (primary screen). Cells: human THP-1 monocytic leukaemia cells, TNF dual-luciferase reporter clone, PMA-differentiated to macrophage-like cells. Reagent: siRNA pool against human genes, 50 nM. Time to read-out: LPS for 4 h, given about 3 days after siRNA transfection. Treatment: bacterial LPS (TLR4 ligand), 10 ng/ml. Read-out: 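TNF firefly reporter luminescence divided by renilla, normalised to the plate median, then turned into a robust z-score for each replicate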. Direction: TNF reporter robust z-score: higher = stronger TNF reporter response to LPS. Hit rule: 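Each well counts as active if its z-score is over 2.8 or under -1.5; controls are left without a call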.
The deposit covers about 18,000 reagents; this is a part drawn at random. About 2,900 of all reagents (16%) count as active. 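Calls are made per well; low scores hint the gene aids the LPS response, high scores that it dampens it.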 Entries without a mark were called inactive. Repeated entries: four replicate wells of each siRNA pool.

TNF reporter robust z-score	target gene
-1.1	RCHY1
0.9	RCHY1
0.08	RCHY1
-0.08	FAM86B1
-1.34	FAM86B1
-0.97	FAM86B1
-1.33	FAM86B1
-0.82	KRTAP6-1
0.13	KRTAP6-1
-0.21	KRTAP6-1
-0.08	KRTAP6-1
-1	ACSM2A
0.58	ACSM2A
0.91	ACSM2A
-0.66	ACSM2A
1.18	DPRX
0.88	DPRX
1.9	DPRX
2.39	DPRX
1.12	RELN
0.35	RELN
-0.47	RELN
-1.27	HAT1
-1.14	HAT1
-0.82	HAT1
-0.02	HAT1
0.57	DENND10
1.29	DENND10
1.26	DENND10
2.02	DENND10
-0.87	ANAPC15
0.97	ANAPC15
-0.09	ANAPC15
0.21	ANAPC15
-1.45	BCS1L
0.22	BCS1L
-0.98	BCS1L
-1	BCS1L
0.46	IL21
0.16	IL21
0.36	IL21
1.55	IL21
-1.76 (active)	PPP2R3A
-0.25	PPP2R3A
1.09	PPP2R3A
0.69	PPP2R3A
-0.64	HPS5
0.57	HPS5
-0.12	HPS5
0.45	HPS5
5.95 (active)	HR
3.48 (active)	HR
3.95 (active)	HR
4.69 (active)	HR
-0.68	TNFSF13B
-0.54	TNFSF13B
-0.48	TNFSF13B
-0.06	TNFSF13B
0.15	IFI44
0.23	IFI44
1.36	IFI44
0.57	IFI44
-0.9	NXPH2
-0.3	NXPH2
0.05	NXPH2
0.27	NXPH2
-0.19	RXFP1
-0.43	RXFP1
-0.27	RXFP1
-0.5	RXFP1
-1.46	TCF3
-1.05	TCF3
0.57	TCF3
0.21	TCF3
0.26	ITPR2
2.77	ITPR2
2	ITPR2
3.61 (active)	ITPR2
-0.11	PRDM11
-0.28	PRDM11
1.01	PRDM11
-0.58	RIC8A
0	RIC8A
-0.14	RIC8A
-0.07	RIC8A
0.88	MFSD6L
1.23	MFSD6L
0.13	MFSD6L
-0.05	MFSD6L
1.92	EEF2
2.49	EEF2
1.83	EEF2
0.75	EEF2
0.17	RHOD
1.64	RHOD
0.69	RHOD
1.4	RHOD
0.06	VAMP1
-0.49	VAMP1
0.21	VAMP1
0.52	VAMP1
-1.95 (active)	RPGRIP1
-1.97 (active)	RPGRIP1
-1.89 (active)	RPGRIP1
-1.75 (active)	RPGRIP1
-0.37	TSPAN9
-0.97	TSPAN9
-0.51	TSPAN9
-0.55	TSPAN9
1.07	LILRB4
2.41	LILRB4
2.86 (active)	LILRB4
1.1	LILRB4

Ordered by “TNF reporter robust z-score” (low to high): 18 of the entries above
TNF reporter robust z-score	target gene
-0.9	NXPH2
-0.68	TNFSF13B
-0.54	TNFSF13B
-0.48	TNFSF13B
-0.3	NXPH2
-0.12	HPS5
-0.06	TNFSF13B
0.05	NXPH2
0.15	IFI44
0.23	IFI44
0.45	HPS5
0.57	HPS5
0.57	IFI44
1.36	IFI44
3.48 (active)	HR
3.95 (active)	HR
4.69 (active)	HR
5.95 (active)	HR
